From publication PMC5645467

Chains of the proteins cited; added tags and fusions are not shown. Lines headed by an entry give the natural chain unless they say otherwise; changes in a name come on top. Residues count along the entry.
UniProt P18754: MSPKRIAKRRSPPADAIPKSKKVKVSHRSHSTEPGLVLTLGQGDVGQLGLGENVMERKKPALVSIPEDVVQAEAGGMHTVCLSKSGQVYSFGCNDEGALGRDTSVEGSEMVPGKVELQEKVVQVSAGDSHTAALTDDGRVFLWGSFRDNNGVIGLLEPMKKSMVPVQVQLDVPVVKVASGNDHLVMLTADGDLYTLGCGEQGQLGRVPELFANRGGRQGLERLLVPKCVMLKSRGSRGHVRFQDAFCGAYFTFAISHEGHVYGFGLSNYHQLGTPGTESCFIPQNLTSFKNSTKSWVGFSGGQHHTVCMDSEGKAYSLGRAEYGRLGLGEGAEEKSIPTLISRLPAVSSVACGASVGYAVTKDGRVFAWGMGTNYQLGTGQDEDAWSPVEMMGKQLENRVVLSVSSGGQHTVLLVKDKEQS
GST-RCC1-NLS (WT): residues 1-24 of P18754
UniProt O00629: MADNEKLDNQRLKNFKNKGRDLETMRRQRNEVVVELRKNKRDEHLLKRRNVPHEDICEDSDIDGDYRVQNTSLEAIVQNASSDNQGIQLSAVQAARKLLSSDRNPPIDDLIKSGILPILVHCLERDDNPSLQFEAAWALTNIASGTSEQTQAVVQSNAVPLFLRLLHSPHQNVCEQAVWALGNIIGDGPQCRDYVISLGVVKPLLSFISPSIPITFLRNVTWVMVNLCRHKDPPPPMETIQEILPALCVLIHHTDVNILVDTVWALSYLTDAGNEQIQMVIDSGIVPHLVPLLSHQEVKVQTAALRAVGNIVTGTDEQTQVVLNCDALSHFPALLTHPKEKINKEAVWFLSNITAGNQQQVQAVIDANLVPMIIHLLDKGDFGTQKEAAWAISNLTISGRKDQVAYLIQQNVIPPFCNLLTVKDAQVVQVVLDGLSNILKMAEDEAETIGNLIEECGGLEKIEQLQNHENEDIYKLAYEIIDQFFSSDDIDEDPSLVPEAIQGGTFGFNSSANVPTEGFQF
UniProt Q02821: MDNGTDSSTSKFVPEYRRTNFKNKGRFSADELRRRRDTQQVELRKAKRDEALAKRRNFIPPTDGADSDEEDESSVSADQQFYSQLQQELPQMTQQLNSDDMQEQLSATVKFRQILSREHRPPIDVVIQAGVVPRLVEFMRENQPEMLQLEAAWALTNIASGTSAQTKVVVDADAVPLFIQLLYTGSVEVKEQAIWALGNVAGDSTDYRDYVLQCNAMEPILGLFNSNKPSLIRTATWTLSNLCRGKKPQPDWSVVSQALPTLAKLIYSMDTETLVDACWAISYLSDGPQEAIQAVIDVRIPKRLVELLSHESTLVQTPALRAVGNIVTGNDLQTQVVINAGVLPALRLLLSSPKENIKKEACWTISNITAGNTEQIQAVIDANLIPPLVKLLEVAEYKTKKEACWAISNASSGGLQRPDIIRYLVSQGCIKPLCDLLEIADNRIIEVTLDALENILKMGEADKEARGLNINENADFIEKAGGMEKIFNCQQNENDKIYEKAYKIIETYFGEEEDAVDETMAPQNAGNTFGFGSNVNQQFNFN
UniProt P21827: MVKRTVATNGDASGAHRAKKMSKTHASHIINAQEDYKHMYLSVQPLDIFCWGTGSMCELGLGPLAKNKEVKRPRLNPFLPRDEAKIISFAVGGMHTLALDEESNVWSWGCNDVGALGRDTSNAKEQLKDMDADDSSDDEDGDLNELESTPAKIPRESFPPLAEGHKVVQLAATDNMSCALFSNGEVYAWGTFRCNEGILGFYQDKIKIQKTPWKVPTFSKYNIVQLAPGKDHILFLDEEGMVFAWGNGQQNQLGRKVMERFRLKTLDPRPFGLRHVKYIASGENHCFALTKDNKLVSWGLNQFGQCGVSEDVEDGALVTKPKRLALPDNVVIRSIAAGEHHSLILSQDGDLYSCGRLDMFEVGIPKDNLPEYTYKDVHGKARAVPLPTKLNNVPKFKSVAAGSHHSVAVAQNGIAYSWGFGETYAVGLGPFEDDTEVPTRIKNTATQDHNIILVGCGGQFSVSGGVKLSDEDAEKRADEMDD

How the values were obtained:
[1] = molecular target: GST-RCC1-NLS (WT) (human) (UniProt P18754); assay: pull-down; GST-RCC1 constructs (~[…]) pre-incubated with His-tagged ΔIBB-importin α1 or α3 (~1 µM), glutathione beads, eluted with reduced glutathione; SDS-PAGE, quantified, ΔIBB-importin α3 pulled down by GST-RCC1 = 100%; both purified
[2] = molecular target: GST-RCC1 (full-length human RCC1, wild type) (human) (UniProt P18754); assay: as above
[3] = molecular target: untagged ΔIBB-importin α3 (co-expressed with GST-RCC1) (human) (UniProt O00629); assay: crystal structure; co-expressed, purified complexes crystallised at 20 mg ml^-1; molecular replacement; both purified
[4] = molecular target: ΔIBB-Kap60 (co-expressed with yeast GST-RCC1) (Saccharomyces cerevisiae) (UniProt Q02821); assay: as above
[5] = molecular target: GST-ΔIBB-Kap60 (Saccharomyces cerevisiae) (UniProt Q02821); assay: pull-down; purified GST-ΔIBB-importin α3 or GST-ΔIBB-Kap60 (1 µM) pre-incubated with RCC1/yRCC1 ([…]) ~60 min at 4 °C, then bound to glutathione beads, washed three times, eluted with 25 mM reduced glutathione; SDS-PAGE, Coomassie, quantified in triplicate, WT = 100%; both purified

Substance: His-tagged ΔIBB-importin α3 (from UniProt O00629) (domain or fragment)
- binding [1]: binds
- binding [2]: binds

Substance: RCC1 (human, cleaved from GST, in the purified importin α3:RCC1 complex) (from UniProt P18754 1-421)
- binding [3]: binds

Substance: yRCC1 (yeast RCC1, cleaved from GST, in the purified Kap60:yRCC1 complex) (from UniProt P21827 1-482)
- binding [4]: binds

Substance: yRCC1 (yeast RCC1, wild type, free protein) (from UniProt P21827 1-482)
- binding [5]: binds

Substance: yRCC1 E34A/D35A (from UniProt P21827 1-482)
- binding [5]: binds

Substance: yRCC1 K20A (from UniProt P21827 1-482)
- binding [5]: no binding (tested: 1 μM ΔIBB-Kap60 and 0.75 μM yRCC1)

Substance: yRCC1 R4A (from UniProt P21827 1-482)
- binding [5]: no binding (tested: 1 μM ΔIBB-Kap60 and 0.75 μM yRCC1)

Substance: yRCC1 R4A/K20A (from UniProt P21827 1-482)
- binding [5]: no binding (tested: 1 μM ΔIBB-Kap60 and 0.75 μM yRCC1)

Substance: Δ10-yRCC1 (from UniProt P21827 11-482) (domain or fragment)
- binding [5]: no binding (tested: 1 μM ΔIBB-Kap60 and 0.75 μM yRCC1)

Substance: Δ23-yRCC1 (from UniProt P21827 24-482) (domain or fragment)
- binding [5]: no binding (tested: 1 μM ΔIBB-Kap60 and 0.75 μM yRCC1)

These are yes or no findings as the source states them, for the method shown. Binding calls can cover weak binding; strength is not graded here.
